Laboratory results: PubChem BioAssay AID1259307 (Sanger Institute, 2017)
The whole screen tested 794 reagents; shown is a part drawn at random. 15 of all reagents (1.9%) count as active. 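Calls reflect lethality without any drug; synergy scores did not enter the calls.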 Not all columns of the deposit are shown. No sequences are given here. The record does not give: the amount of reagent, the time to read-out.

- Test: 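Identify kinases needed for SW620 growth or enhancing BYL719, cetuximab or trametinib effects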 (primary screen)
- Cell system: SW620 colorectal cancer cells
- Knock-down reagent: siRNA pool against human genes
- Conditions: anchor drugs BYL719 at 1 µM, cetuximab at 5 µg/ml or trametinib at 10 nM, each beside a DMSO vehicle arm
- Measured: 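Per-well viability versus non-targeting control pool, replicate-averaged, robust z-score from controls; synergy scores for BYL719 1 µM, cetuximab 5 µg/ml, trametinib 10 nM against DMSO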
- Scale: viability robust z-score, no drug: higher = more viable cells
- Rule for the call: 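Essential when the viability robust z-score without drug is under -3; synergy scores are ignored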
- Calls: active = essential (lethal alone); inactive = no change alone

Silencing of MAP3K3 resulted in: viability robust z-score, no drug -0.738; inactive.
For CDKL5, the values are viability robust z-score, no drug 0.421; inactive.
PRKCH gave viability robust z-score, no drug -0.0186; inactive.
STK39 scored viability robust z-score, no drug -2.76; inactive.
JAK2 scored viability robust z-score, no drug 0.736; inactive.
NEK6 scored viability robust z-score, no drug 0.736; inactive.
PKN3 gave viability robust z-score, no drug -0.981; inactive.
For ACO1 the deposit lists viability robust z-score, no drug 0.649; inactive.
Knock-down of IRAK3 resulted in: viability robust z-score, no drug -0.505; inactive.
NEK2 scored viability robust z-score, no drug 0.736; inactive.
For AMHR2, the entry reads viability robust z-score, no drug 0.736; inactive.
PRKAG3 gave viability robust z-score, no drug -3.18; active.
After knock-down of PIK3R4 the results were viability robust z-score, no drug 0.242; inactive.
Against TWF1, the entry reads viability robust z-score, no drug 0.736; inactive.
Depletion of DLG3 came out at: viability robust z-score, no drug 0.736; inactive.
PIP5K1C gave viability robust z-score, no drug -1.16; inactive.
CMPK1 gave viability robust z-score, no drug 0.736; inactive.
PAK1 showed viability robust z-score, no drug -1.19; inactive.
Silencing of AMER1 gave: viability robust z-score, no drug 0.736; inactive.
For PGK2 the deposit lists viability robust z-score, no drug 0.736; inactive.
After knock-down of NADK, the record shows viability robust z-score, no drug 0.736; inactive.
For FCSK, the entry reads viability robust z-score, no drug 0.736; inactive.
With knock-down of CDC7, the screen gave viability robust z-score, no drug 0.467; inactive.
After knock-down of PRKD3, the record shows viability robust z-score, no drug 0.245; inactive.
Silencing of CSNK1G2 resulted in: viability robust z-score, no drug 0.736; inactive.
Against RIOK3, the entry reads viability robust z-score, no drug -0.173; inactive.
Against ALDH18A1, the values are viability robust z-score, no drug 0.736; inactive.
WNK3 gave viability robust z-score, no drug 0.736; inactive.
